Data as given in PubChem BioAssay AID652248 (Drosophila RNAi Screening Center, 2013)

- Screen: 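Kinase and phosphatase regulators of cell lengthening and shape variety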 (primary screen)
- System: cultured Drosophila hemocytes
- Reagents: long dsRNA against Drosophila genes
- Measurement: 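Automated microscopy of stained actin, tubulin and nuclei; single-cell shape measures assigned to five reference shape types, giving a score per dsRNA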
- Direction: elongated score: higher = more elongated bipolar cells
- Hit rule: 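a gene counts as active when its knock-down clearly increases the elongated score; a low similarity score was then used to rank the actives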
Here is one part, drawn at random, of 863 deposited reagents. Over the whole deposit, 32 (3.7%) were called active. 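Calls also used reproducibility and a similarity ranking whose scores are not deposited; many active genes show only modest elongated scores.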 Not all columns of the deposit are shown. The record does not give: the amount of reagent, the time to read-out.

gene knocked down | amplicon | elongated score, rep 1 | elongated score, rep 2 | call
rl (rolled) | DRSC07833 | 1.3 | – | active
rl (rolled) | DRSC20742 | 1.07 | – | active
rl (rolled) | DRSC21814 | 4.6 | – | active
CG12147 | DRSC12192 | -0.53 | – | inactive
CG12147 | DRSC30029 | 2.69 | – | inactive
Pdxk (Pyridoxal kinase) | DRSC10419 | -0.05 | – | inactive
2mit | DRSC14194 | -0.53 | – | inactive
CG9962 | DRSC00739 | -0.53 | – | inactive
CG9962 | DRSC27772 | 0.72 | – | inactive
14-3-3zeta | DRSC05028 | 0.65 | – | active
14-3-3zeta | DRSC27525 | 4.43 | – | active
CG12746 | DRSC12218 | -0.53 | – | inactive
Tao | DRSC19573 | 3.25 | -0.3 | inactive
Tao | DRSC19574 | 5.55 | -0.29 | inactive
Tao | DRSC22639 | -0.22 | – | inactive
Tao | DRSC28431 | 0.39 | – | inactive
Gp150 | DRSC04618 | 0.16 | – | inactive
Gp150 | DRSC29033 | 1.88 | – | inactive
smal (smoke alarm) | DRSC02318 | 1.26 | -0.09 | inactive
smal (smoke alarm) | DRSC02319 | -0.11 | – | inactive
smal (smoke alarm) | DRSC02504 | -0.11 | – | inactive
smal (smoke alarm) | DRSC22866 | 0.95 | – | inactive
smal (smoke alarm) | DRSC26352 | 4.55 | – | inactive
Pkcdelta (Protein kinase C delta) | DRSC19356 | -0.53 | – | inactive
Alp13 (Alkaline phosphatase 13) | DRSC15781 | -0.53 | – | inactive
Ssl (Suppressor of Stellate-like) | DRSC04657 | -0.53 | – | inactive
Ssl (Suppressor of Stellate-like) | DRSC26276 | -0.41 | – | inactive
Cdk1 (Cyclin-dependent kinase 1) | DRSC03504 | 5.77 | – | inactive
gwl (greatwall) | DRSC16305 | -0.53 | – | inactive
CG1951 | DRSC15403 | -0.19 | – | inactive
nmdyn-D6 | DRSC20355 | 1.12 | – | inactive
CycB (Cyclin B) | DRSC04605 | 1.21 | – | inactive
CanA-14F (Calcineurin A at 14F) | DRSC23296 | -0.46 | – | inactive
otk (off-track) | DRSC07658 | -0.53 | – | inactive
otk (off-track) | DRSC29192 | 2.67 | – | inactive
CG4733 | DRSC15634 | -0.53 | – | inactive
dco (discs overgrown) | DRSC16929 | 0.36 | – | inactive
dco (discs overgrown) | DRSC29211 | 2.57 | – | inactive
CycE (Cyclin E) | DRSC03295 | 0.47 | – | inactive
CycE (Cyclin E) | DRSC03296 | -0.53 | – | inactive
inaC (inactivation no afterpotential C) | DRSC07632 | -0.24 | – | inactive
Rok (Rho kinase) | DRSC20277 | 3.54 | – | inactive
Rok (Rho kinase) | DRSC23348 | 0.43 | – | inactive
Ror | DRSC03414 | -0.39 | – | inactive
CG14297 | DRSC14776 | 0.75 | – | inactive
dap (dacapo) | DRSC07601 | 0.84 | – | inactive

Ordered by “elongated score, rep 1” (descending): some entries from above
gene knocked down | amplicon | elongated score, rep 1 | elongated score, rep 2 | call
smal (smoke alarm) | DRSC26352 | 4.55 | – | inactive
Gp150 | DRSC29033 | 1.88 | – | inactive
smal (smoke alarm) | DRSC02318 | 1.26 | -0.09 | inactive
smal (smoke alarm) | DRSC22866 | 0.95 | – | inactive
Gp150 | DRSC04618 | 0.16 | – | inactive
smal (smoke alarm) | DRSC02319 | -0.11 | – | inactive
smal (smoke alarm) | DRSC02504 | -0.11 | – | inactive
